PubChem BioAssay AID2662 (National Center for Advancing Translational Sciences (NCATS), 2010)
About 110 (0.038%) of roughly 290,000 compounds were called active. The shares of active, inactive and inconclusive entries below differ from those in the screen. The call rests on the fitted dose curve; in most records, active means well fitted inhibition curve with a large enough effect in the polarisation, with a control signal flat (not every such curve was filed as active); inconclusive means small, poorly fitted or top-dose-only effect, or effect the other way, or a change in a side signal; inactive means no such curve, though single readings can be large or run the other way; the % refers to the polarisation. Potencies beside an inconclusive call are fits to weak or partial responses and may not hold up. A note “side channel” means that the fit belongs to a control or component signal, not to the main read-out.

The chains behind the UniProt entries cited, without tags or fusion partners.
UniProt Q03164, whole entry, looked up: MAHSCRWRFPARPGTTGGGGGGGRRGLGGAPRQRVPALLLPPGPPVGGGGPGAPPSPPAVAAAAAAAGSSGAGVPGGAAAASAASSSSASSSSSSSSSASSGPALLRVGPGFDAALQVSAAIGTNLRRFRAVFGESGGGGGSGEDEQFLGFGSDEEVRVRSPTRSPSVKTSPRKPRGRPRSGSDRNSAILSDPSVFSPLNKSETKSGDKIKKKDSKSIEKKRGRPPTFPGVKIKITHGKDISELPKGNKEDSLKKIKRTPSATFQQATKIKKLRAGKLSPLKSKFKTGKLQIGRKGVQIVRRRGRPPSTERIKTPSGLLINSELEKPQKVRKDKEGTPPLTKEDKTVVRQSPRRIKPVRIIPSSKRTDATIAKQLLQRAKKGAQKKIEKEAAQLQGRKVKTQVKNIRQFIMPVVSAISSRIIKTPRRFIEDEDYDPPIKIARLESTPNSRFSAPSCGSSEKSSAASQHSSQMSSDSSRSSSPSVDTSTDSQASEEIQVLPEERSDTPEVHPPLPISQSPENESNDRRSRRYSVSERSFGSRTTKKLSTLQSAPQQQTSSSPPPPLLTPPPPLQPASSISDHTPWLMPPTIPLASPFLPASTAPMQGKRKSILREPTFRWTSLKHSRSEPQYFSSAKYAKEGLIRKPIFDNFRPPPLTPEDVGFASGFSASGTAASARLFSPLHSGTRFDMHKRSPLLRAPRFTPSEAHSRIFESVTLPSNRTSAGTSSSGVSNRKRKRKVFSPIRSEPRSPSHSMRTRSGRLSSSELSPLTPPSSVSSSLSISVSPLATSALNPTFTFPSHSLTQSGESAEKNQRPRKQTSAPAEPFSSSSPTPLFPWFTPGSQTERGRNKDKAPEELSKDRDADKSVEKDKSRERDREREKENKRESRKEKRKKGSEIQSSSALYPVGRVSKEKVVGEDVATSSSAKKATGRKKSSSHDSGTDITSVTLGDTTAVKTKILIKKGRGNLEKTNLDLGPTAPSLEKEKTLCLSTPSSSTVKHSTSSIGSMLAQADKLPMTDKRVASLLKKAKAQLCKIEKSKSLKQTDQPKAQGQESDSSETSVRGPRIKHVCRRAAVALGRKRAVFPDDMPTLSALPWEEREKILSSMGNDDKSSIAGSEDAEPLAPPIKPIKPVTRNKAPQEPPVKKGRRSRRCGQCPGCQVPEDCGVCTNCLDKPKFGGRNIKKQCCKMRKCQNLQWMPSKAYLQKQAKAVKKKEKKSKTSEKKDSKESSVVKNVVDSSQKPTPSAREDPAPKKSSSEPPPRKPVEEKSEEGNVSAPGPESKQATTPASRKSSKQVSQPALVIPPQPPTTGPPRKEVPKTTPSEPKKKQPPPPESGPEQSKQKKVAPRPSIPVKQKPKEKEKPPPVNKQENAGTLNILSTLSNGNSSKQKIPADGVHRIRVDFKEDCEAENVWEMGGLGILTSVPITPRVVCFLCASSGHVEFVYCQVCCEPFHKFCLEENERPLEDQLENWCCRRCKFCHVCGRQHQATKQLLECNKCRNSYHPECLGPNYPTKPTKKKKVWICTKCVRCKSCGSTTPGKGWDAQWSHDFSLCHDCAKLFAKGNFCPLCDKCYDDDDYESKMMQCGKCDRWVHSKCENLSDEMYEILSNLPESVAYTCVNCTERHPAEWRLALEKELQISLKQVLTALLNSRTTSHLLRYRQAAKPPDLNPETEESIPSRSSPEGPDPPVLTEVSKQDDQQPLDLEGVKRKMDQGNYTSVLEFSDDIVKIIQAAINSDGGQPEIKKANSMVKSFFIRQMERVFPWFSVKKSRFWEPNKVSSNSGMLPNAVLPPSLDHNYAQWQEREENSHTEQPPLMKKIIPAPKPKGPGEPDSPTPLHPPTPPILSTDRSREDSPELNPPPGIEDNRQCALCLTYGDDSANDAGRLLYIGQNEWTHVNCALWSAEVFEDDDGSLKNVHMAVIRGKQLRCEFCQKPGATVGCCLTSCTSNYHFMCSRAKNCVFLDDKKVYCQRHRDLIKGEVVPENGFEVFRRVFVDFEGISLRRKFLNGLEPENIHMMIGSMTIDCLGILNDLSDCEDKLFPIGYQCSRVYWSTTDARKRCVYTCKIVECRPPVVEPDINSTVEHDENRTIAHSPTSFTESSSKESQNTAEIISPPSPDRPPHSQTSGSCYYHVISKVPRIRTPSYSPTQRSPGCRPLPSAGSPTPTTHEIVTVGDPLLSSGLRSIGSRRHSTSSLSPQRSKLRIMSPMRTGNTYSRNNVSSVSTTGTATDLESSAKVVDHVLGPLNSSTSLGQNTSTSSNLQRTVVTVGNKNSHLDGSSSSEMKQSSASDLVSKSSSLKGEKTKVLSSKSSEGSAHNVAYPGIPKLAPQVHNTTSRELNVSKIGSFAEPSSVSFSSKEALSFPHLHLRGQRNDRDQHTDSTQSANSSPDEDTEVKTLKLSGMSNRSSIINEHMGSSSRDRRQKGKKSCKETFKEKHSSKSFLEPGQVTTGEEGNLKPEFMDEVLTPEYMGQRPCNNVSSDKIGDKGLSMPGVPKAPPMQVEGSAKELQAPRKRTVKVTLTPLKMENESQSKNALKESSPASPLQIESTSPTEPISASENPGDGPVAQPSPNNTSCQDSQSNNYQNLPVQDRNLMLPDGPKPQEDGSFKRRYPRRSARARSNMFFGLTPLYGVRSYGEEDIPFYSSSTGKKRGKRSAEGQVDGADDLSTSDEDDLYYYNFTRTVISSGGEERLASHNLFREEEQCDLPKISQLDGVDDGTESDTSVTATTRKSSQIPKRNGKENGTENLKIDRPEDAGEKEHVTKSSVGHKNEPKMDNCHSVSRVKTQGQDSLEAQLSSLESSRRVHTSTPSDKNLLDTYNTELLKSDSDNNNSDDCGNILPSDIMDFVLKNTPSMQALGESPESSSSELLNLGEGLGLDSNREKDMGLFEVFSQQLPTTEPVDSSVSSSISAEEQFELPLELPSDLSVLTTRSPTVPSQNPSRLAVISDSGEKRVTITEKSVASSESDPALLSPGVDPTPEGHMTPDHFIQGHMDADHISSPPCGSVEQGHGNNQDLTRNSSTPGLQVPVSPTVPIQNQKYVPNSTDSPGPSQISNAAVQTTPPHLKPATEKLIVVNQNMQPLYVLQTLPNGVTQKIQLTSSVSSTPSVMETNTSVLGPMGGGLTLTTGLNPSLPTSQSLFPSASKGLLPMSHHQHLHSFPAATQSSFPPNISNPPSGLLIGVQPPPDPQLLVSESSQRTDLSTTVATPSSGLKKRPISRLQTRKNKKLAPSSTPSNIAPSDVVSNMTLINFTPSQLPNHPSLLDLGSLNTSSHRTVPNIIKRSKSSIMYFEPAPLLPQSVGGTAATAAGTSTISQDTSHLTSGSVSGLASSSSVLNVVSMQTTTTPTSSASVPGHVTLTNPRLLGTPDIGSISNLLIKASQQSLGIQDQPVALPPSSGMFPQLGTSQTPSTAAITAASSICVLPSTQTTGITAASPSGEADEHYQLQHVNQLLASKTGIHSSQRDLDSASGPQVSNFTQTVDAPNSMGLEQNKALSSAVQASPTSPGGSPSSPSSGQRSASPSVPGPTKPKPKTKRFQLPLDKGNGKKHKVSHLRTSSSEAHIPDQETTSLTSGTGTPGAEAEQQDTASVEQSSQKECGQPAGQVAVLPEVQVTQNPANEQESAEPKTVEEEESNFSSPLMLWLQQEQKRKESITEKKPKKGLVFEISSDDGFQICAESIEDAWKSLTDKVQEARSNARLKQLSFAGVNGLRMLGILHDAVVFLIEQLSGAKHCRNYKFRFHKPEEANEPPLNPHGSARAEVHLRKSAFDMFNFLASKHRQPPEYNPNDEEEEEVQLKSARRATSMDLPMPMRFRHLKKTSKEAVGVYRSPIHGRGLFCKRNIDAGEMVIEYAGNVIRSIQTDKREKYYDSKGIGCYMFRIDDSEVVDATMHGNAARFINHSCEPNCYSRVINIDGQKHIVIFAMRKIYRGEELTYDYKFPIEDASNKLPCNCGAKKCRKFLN

These compounds were tested against Histone-lysine N-methyltransferase 2A (Homo sapiens) (UniProt Q03164) (assay: qHTS Fluorescence Polarization Assay for Inhibitors of MLL CXXC domain - DNA interaction). Details: MLL-CXXC / FITC-HOXA9 DNA fluorescence polarization; activity change, negative = inhibition: at 115 µM (top of the series).
Method in brief: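 Fluorescence polarization: 7 uM MLL-CXXC (stock) preincubated 5 min with compounds, then 50 nM fluorescein-HOX-A9 DNA (stock) added; 30 min ambient. Buffer 50 mM Tris-HCl pH 7.5, 50 mM NaCl, 1 mM DTT, 0.05% BSA.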
Potency means the concentration at half of the fitted maximal effect.

SMILES	activity change, negative = inhibition	Potency
CN(C)NC(=O)c1ccsc1NC(=O)c1ccc(S(=O)(=O)N(C)C)cc1	inactive: -2.21%	
CN1C2=CC=CC=CC2=[N+](C)C12C=CC(=[N+]([O-])[O-])C=C2[N+](=O)[O-] (stereo unspecified)		inconclusive: 31.6 µM [quencher, side channel, partial curve]
CSc1ccc(C(=O)C2CCCN(C(=O)c3nonc3C)C2)cc1 (stereo unspecified)	inconclusive: -9.25% [phenotype inactive]	
Cc1cc(=O)n2[nH]c(-c3sccc3-n3c(C)ccc3C)cc2n1		inconclusive: 11.2 µM [fluorescent, side channel, partial curve]
O=c1oc2ccccc2c2oc3cc(O)c(O)cc3c12	inactive: 7.56%	
CCCCCCc1cc2cc(-c3nnc(-c4cc(OC)c(OC)c(OC)c4)o3)c(=O)oc2cc1O		inconclusive: 28.2 µM [fluorescent, side channel, partial curve]
Cc1cc2nc(-c3ccc(SCC(=O)N4CCOCC4)nc3)[nH]c2cc1C	inactive: 1.33%	
O=C(COc1ccc(Cl)cc1[N+](=O)[O-])NC1CCCCC1		inconclusive: 15.8 µM [inhibitor, single point]
COC(=O)C1=NN(C(=O)c2ccc(Cl)cc2)C(O)(c2ccccc2)C1 (stereo unspecified)		inconclusive: 1.26 µM [fluorescent, side channel, full curve, poor fit]
Cc1[nH]c(N=Nc2ccccc2)nc1N=Nc1ccccc1		inconclusive: 14.1 µM [quencher, side channel, partial curve]
Oc1ccc2ccccc2c1C=Nc1ccc(N2CCOCC2)cc1		inconclusive: 39.8 µM [fluorescent, side channel, single point]
Cc1ccsc1C(=O)N/N=C/C=C/c1ccccc1[N+](=O)[O-]		inconclusive: 15.8 µM [inhibitor, single point]
O=C(Nc1cc([N+](=O)[O-])ccc1N1CCCC1)c1ccccc1		inconclusive: 31.6 µM [inhibitor, partial curve]
Oc1c(Br)cc(/C=N/n2c(-c3ccccc3)n[nH]c2=S)c(Br)c1O		inconclusive: 20 µM [inhibitor, partial curve]
O=C1C=C(O)c2cccc3cccc1c23		inconclusive: 44.7 µM [inhibitor, partial curve]
CC(C)CCOc1ccc(C2=NNC(=O)CC2)cc1		inconclusive: 14.1 µM [inhibitor, single point]
COc1ccc(C(=O)OCC2CC(c3ccccc3)=NO2)cc1OC (stereo unspecified)		inconclusive: 3.16 µM [fluorescent, side channel, full curve, poor fit]
CC(=O)c1cccc(N(C(=O)CNC(=O)c2ccco2)C(C(=O)NC2CCCC2)c2ccncc2)c1 (stereo unspecified)		inconclusive: 7.08 µM [fluorescent, side channel, single point]
COc1cccc(N2CC(O)=C(c3nc4ccccc4c(=O)[nH]3)C2=N)c1	inactive: -7.89%	
C[C@H](NC(=O)OC(C)(C)C)C(=O)NCC1CCC(C(=O)O)CC1 (stereo partly specified)		inconclusive: 8.91 µM [quencher, side channel, single point]
O=[N+]([O-])c1cc(S(=O)(=O)N2CCCCCC2)ccc1F	inactive: -7.19%	

Another view of some results above:
SMILES,"activity change, negative = inhibition",Potency
CC(C)CCOc1ccc(C2=NNC(=O)CC2)cc1,,"inconclusive: 14.1 µM [inhibitor, single point]"
COc1ccc(C(=O)OCC2CC(c3ccccc3)=NO2)cc1OC (stereo unspecified),,"inconclusive: 3.16 µM [fluorescent, side channel, full curve, poor fit]"

The list continues.

SMILES	activity change, negative = inhibition	Potency
O=C(Nc1ccccc1N1CCCCC1)c1ccccc1F	inactive: -3.28%	
COC(=O)C1=C(C(=O)OC)C(c2ccccc2O)c2sc(=O)[nH]c2S1 (stereo unspecified)		inconclusive: 28.2 µM [fluorescent, side channel, single point]
C=CCOc1ccc(/C=N/Nc2ccccn2)cc1OC		inconclusive: 112 µM [fluorescent, side channel, partial curve, poor fit]
COc1ccc(C(=O)C[N+]2(C)CCOCC2)cc1	inactive: 9.11%	
COc1cc(C(=O)NCCOc2ccccc2C)c(Br)c(OC)c1OC		inconclusive: 1.41 µM [fluorescent, side channel, partial curve, poor fit]
CCOc1ccc(CN(C)CC(=O)NCc2ccc(F)cc2)cc1		inconclusive: 35.5 µM [fluorescent, side channel, partial curve]
CC(C(=O)OCC(=O)Nc1ncc(Cl)cc1Cl)N1C(=O)c2ccccc2C1=O (stereo unspecified)		inconclusive: 15.8 µM [quencher, side channel, single point]
CCCc1nn(-c2ccccc2)c2c1C(c1cccs1)C(C#N)=C(N)O2 (stereo unspecified)		inconclusive: 89.1 µM [inhibitor, single point]
COc1ccc(OC)c(N/C(C)=C/C(=O)c2ccc(Br)cc2)c1		inconclusive: 35.5 µM [fluorescent, side channel, single point]
Cc1ccc(C)c(OCc2cc(C(=O)NC3CCOC(C)(C)C3)no2)c1 (stereo unspecified)		inconclusive: 15.8 µM [quencher, side channel, full curve, poor fit]
Cc1cccn2c(=O)c3cc(C(=O)NCCN4CCOCC4)c(=N)n(Cc4cccnc4)c3nc12	inactive: 2.89%	
c1csc(-c2nnc(NC3CCCCC3)c3ccccc23)c1		inconclusive: 63.1 µM [inhibitor, single point]
COc1ccc(C(=O)N/N=C/c2cc(Br)ccc2O)cc1OC	inactive: 223%	
Cc1cccc(NC(=S)NNc2ncc(C(F)(F)F)cc2Cl)c1	inactive: 13.4%	
O=C(CSc1ncn[nH]1)N1c2ccccc2Sc2ccccc21		inconclusive: 1 µM [quencher, side channel, full curve, poor fit]
NCCc1cnc[nH]1		inactive
CC(=O)NC(CCS(C)(=O)=O)C(=O)Nc1c(F)cccc1F (stereo unspecified)		inconclusive: 6.31 µM [inhibitor, single point]
CCO[C@H]1OC(C(=O)N2CCOCC2)=C[C@@H](C2CC2)[C@@H]1CCCO		inconclusive: 31.6 µM [inhibitor, single point]
Cc1ccc(S(=O)(=O)N2CCOCC2)cc1NC(=O)CSc1nnnn1C		inconclusive: 10 µM [fluorescent, side channel, full curve, poor fit]
O=C1Nc2ccccc2C1C(C[N+](=O)[O-])c1ccccn1 (stereo unspecified)		inconclusive: 35.5 µM [fluorescent, side channel, single point]
